Data published in paper PMC8352894, “A KLK4 proteinase substrate capture approach to antagonize PAR1” (Scientific Reports, 2021).
No constants are given. Whether binding was seen depends on the method and setting.

Chains of the proteins cited; added tags and fusions are not shown. Residues count along the entry.
UniProt Q9Y5K2, residues 31-254: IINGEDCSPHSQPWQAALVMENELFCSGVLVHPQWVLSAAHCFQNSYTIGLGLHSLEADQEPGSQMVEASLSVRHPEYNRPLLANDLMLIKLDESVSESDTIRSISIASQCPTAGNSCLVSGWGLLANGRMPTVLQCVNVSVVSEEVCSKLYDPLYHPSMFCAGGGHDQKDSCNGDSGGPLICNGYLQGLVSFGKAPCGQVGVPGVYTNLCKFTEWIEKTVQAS

Target: T1, biotinylated PAR1 peptide (biotin-31…58-FITC) (human)
T1 sequence (peptide, biotin on the N-terminus; FITC on the C-terminus): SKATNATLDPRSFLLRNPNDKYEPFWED
Assay: SPR; ProteOn XPR36; biotinylated PAR1 peptide immobilised on an NLC chip via NeutrAvidin-biotin (2600 RU); KLK4 variants flowed over in PBST at 30 µL/min for 818 s, dissociation 30 min (166 min for KLK4 S207A,L185D); 25 °C; empty channel subtracted; 1:1 Langmuir kinetic model; both purified

KLK4WT (wild-type tissue kallikrein-4, activated) (from UniProt Q9Y5K2 31-254) (enzyme)
binding: no binding (tested: 100 nM)
